Measured values from PubChem BioAssay AID540276 (National Center for Advancing Translational Sciences (NCATS), 2011).
Values joined by “and” are separate entries in the source; they are usually repeats but may differ in a detail not shown here. Equal values may be shown once. Out of some 300,000 compounds screened, about 5,400 (1.8%) were called active. This list was built around the results that the source calls inconclusive (neither active nor inactive); the mix of calls is not that of the screen. The call rests on the fitted dose curve; tested in HEK293 cells. Potencies of inconclusive entries are doubtful fits and often do not repeat.

Test: qHTS for inhibitors of binding or entry into cells for Marburg Virus
Conditions: Marburg virus pseudotyped entry inhibition, cell reporter; activity change, negative = inhibition: at 37.8 µM (top of the series) unless noted
On the % scale 0 is the no-effect control and ±100 the full control effect; potency means the concentration at half of the fitted maximal effect.

SMILES	Potency	activity change, negative = inhibition
N#Cc1cc2cc3c(cc2nc1N1CCCCC1)OCCO3	inconclusive: 35.5 µM [inhibitor, single point]	–
Cc1ccc(OCC(=O)N/N=C\c2ccc(C)o2)c([N+](=O)[O-])c1	inconclusive: 3.98 µM [activator, full curve, poor fit]	–
COC(=O)c1cc(OC)c(OC)cc1NC(=O)c1ccc(Br)o1	inactive	–
O=C(C1CCN(Cc2ccccc2O)CC1)N1CCN(Cc2ccc3c(c2)OCO3)CC1	inconclusive: 0.501 µM [inhibitor, partial curve, poor fit]	–
Cn1nc(-c2ccc(C(=O)N3CCN(Cc4ccccc4)CC3)cc2)c2ccccc2c1=O	inconclusive: 18.3 µM [inhibitor, single point]	–
CCc1nccn1S(=O)(=O)c1cc(OC)c(Cl)cc1OC	inconclusive: 10 µM [inhibitor, partial curve, poor fit]	–
CC1=C(C(=O)OCc2ccc(C)cc2)C(c2cccc(F)c2F)CC(=O)N1 (stereo unspecified)	inactive	–
CC(C)(C)OC(=O)NCCc1nnc(SCc2ccc(Cl)cc2Cl)o1	inconclusive: 18.3 µM [inhibitor, single point]	–
O=C(COc1ccc(Br)cc1)N1CCN(Cc2c[nH]c3ccccc23)CC1	inconclusive: 35.5 µM [inhibitor, single point]	–
CCc1nn(-c2cc(Cl)ccc2OC)c2c1C(=O)CCC2	inconclusive: 8.91 µM [inhibitor, partial curve, poor fit]	–
COc1ccccc1NC(=O)CSc1nnc(CC(=O)Nc2ccccc2)n1C	inconclusive: 0.13 µM [inhibitor, full curve, poor fit]	–
Cc1nn(Cc2ccc(Cl)cc2Cl)c(C)c1NC(=O)Cn1nc([N+](=O)[O-])c(Cl)c1C	inconclusive: 1.12 µM [inhibitor, single point]	–
CC(C)Oc1ccc(C(=O)CCN2CCCCC2)cc1	inconclusive: 32.6 µM [inhibitor, single point]	–
COc1ccc(-c2cc(C(F)(F)F)n3nc(C(=O)Nc4cc(C)ccc4C)cc3n2)cc1	inactive	–
CCOC(=O)C1=C[C@]2(CC)CCCN3CCc4c(n1c1ccccc41)[C@@H]32	inconclusive: 1.26 µM [inhibitor, full curve] and inconclusive: 14.6 µM [inhibitor, partial curve, poor fit]	–
Cc1ccccc1-c1noc(-c2ccccc2C(=O)NCc2ccco2)n1	inconclusive: 5.01 µM [inhibitor, partial curve, poor fit]	–
CC(C)CC(c1nnnn1Cc1cccs1)N1CCN(c2nc3ccccc3s2)CC1 (stereo unspecified)	inconclusive: 8.91 µM [inhibitor, partial curve, poor fit]	–
CCCCCCOC(=O)c1ccc(NC(=O)c2cc(OC)c(OC)c(OC)c2Br)cc1	inconclusive: 35.5 µM [inhibitor, single point]	–
Cc1c(Cl)cnc(NC(=O)COC(=O)c2ccc3c(c2)OCO3)c1Cl	inconclusive: 0.501 µM [inhibitor, single point]	–
CN1CCN(C(CNS(=O)(=O)c2ccc(Br)cc2)c2ccc3c(c2)OCO3)CC1 (stereo unspecified)	inconclusive: 35.5 µM [inhibitor, single point]	–
CC(=O)N1CCN(Cc2nc3cc(NC(=O)c4ccc(Cl)cc4)ccc3n2C)CC1	inactive	–
COc1ccc(S(=O)(=O)c2nnn(-c3ccc(C(C)C)cc3)c2C)cc1	inactive	–

A draw from above in order of count of non-hydrogen atoms, rising.
SMILES	Potency	activity change, negative = inhibition
CC(C)Oc1ccc(C(=O)CCN2CCCCC2)cc1	inconclusive: 32.6 µM [inhibitor, single point]	–
CCc1nn(-c2cc(Cl)ccc2OC)c2c1C(=O)CCC2	inconclusive: 8.91 µM [inhibitor, partial curve, poor fit]	–
Cc1ccccc1-c1noc(-c2ccccc2C(=O)NCc2ccco2)n1	inconclusive: 5.01 µM [inhibitor, partial curve, poor fit]	–
CC(=O)N1CCN(Cc2nc3cc(NC(=O)c4ccc(Cl)cc4)ccc3n2C)CC1	inactive	–

Individual results from the results shown.
Entry for COc1ccc(-c2cc(C(F)(F)F)n3nc(C(=O)Nc4cc(C)ccc4C)cc3n2)cc1 under Potency: inactive
Entry for CCOC(=O)C1=C[C@]2(CC)CCCN3CCc4c(n1c1ccccc41)[C@@H]32 under Potency: inconclusive: 1.26 µM [inhibitor, full curve] and inconclusive: 14.6 µM [inhibitor, partial curve, poor fit]

(more compounds)

SMILES	Potency	activity change, negative = inhibition
CCOC(=O)CCc1nc2ccccc2[nH]c1=O	inconclusive: 4.11 µM [activator, partial curve, poor fit]	–
COC(=O)Nc1ccc(S(=O)(=O)Nc2ccc(O)cc2)cc1	inactive	–
CCOc1ccccc1N(CC(=O)Nc1ccc(S(=O)(=O)N2CCOCC2)cc1)S(=O)(=O)c1ccc(Cl)cc1	inconclusive: 14.1 µM [activator, single point]	–
Nc1nc(-c2ccccc2)[nH]c(=O)c1N	inconclusive: 22.4 µM [activator, single point]	–
O=C(CNc1ccccc1)N/N=C/c1ccc2c(c1)OCO2	inactive	–
Cc1ccc(-c2ccc(CN3C(CC(C)C)C(=O)N(Cc4cn(CCC5OCCCO5)nn4)CCS3(=O)=O)cc2)cc1 (stereo unspecified)	inconclusive: 12.5 µM [inhibitor, partial curve, poor fit]	–
CN(C)c1cccc2c(C=C(C#N)C#N)ccc(N(C)C)c12	inconclusive: 35.5 µM [inhibitor, single point]	–
CCOC(=O)c1sc2nc(CSc3ccccc3)[nH]c(=O)c2c1C	active: 8.91 µM	–
O=[N+]([O-])c1ccc(/C([O-])=C(/C(=S)NCc2ccco2)[n+]2ccccc2)cc1	inactive	–
Cc1ccc(C(CC(N)=O)c2ccco2)cc1 (stereo unspecified)	inactive	–
CCN(CC)c1ccc(-n2nc3cc(C)c(NC(=O)c4ccccc4C)cc3n2)c(C)c1	inconclusive: 1.58 µM [inhibitor, partial curve, poor fit]	–
CCOc1ccc(NC(=O)Cn2c(=O)n(CCCCC(=O)NCc3ccc4c(c3)OCO4)c(=O)c3ccccc32)cc1	inactive	–
O=C(CSC1CC(=O)N(CCc2ccccc2)C1=O)Nc1ccc(Br)cc1 (stereo unspecified)	inconclusive: 2.82 µM [inhibitor, full curve, poor fit]	–
Cc1ccc(NC(=O)NCc2ccc3c(c2)OCO3)cc1	inconclusive: 6.51 µM [activator, partial curve]	–
CCCCCn1c(CNC(=O)c2ccccc2)nc2ccccc21	inconclusive: 2.24 µM [inhibitor, partial curve, poor fit]	–
Cc1nn(-c2ccccc2)c(C)c1N	inconclusive: 35.5 µM [activator, single point]	–
COC(=O)CCn1nnc(-c2cccs2)n1	inactive	–
CCOC(=O)C1(CCOc2ccccc2)CCN(CC=C(C)C)CC1	inconclusive: 15.8 µM [inhibitor, single point]	–
COCC(=O)Nc1cc(C(=O)OC)cc(C(=O)OC)c1	inconclusive: 0.282 µM [inhibitor, full curve, poor fit]	–
COc1ccc(/C=N/OCC(=O)N(Cc2ccc(OC)cc2)c2ccccc2C(=O)O)cc1	inactive	–
N#C/C(=C\c1ccc(O)c([N+](=O)[O-])c1)c1nc2ccccc2s1	inactive	–
Cc1nnsc1C(=O)Nc1ccc(Cl)cc1Cl	inconclusive: 1.12 µM [activator, single point]	–

SMILES	Potency	activity change, negative = inhibition
CCOc1c(O)ccc(/C=C2\SC(=S)NC2=O)c1[N+](=O)[O-]	inactive	–
C[C@H](NS(=O)(=O)c1ccc(Cl)c(Cl)c1)C(=O)OCc1cc(=O)n2cc(Br)ccc2n1	inconclusive: 1.58 µM [activator, partial curve, poor fit]	–
Cc1ccc(N(C(=O)c2ccc3c(c2)OCO3)C2C=CS(=O)(=O)C2)cc1C (stereo unspecified)	inactive	–
Cc1sc(=NC(=O)c2ccco2)n(C)c1-c1ccccc1	inconclusive: 29.1 µM [inhibitor, single point]	–
Cc1c(CN2CCC(CO)(CCOc3ccccc3)CC2)[nH]c2ccc(Cl)cc12	active: 2.82 µM	–
COc1ccc(-c2c(-c3ccccc3)c(C(=O)C(=O)NCCCN(C)C)n3ccc4cc(OC)c(OC)cc4c23)cc1OC	inconclusive: 35.5 µM [inhibitor, single point]	–
Cn1cnc2cc(NC(=O)c3cccs3)ccc21	inconclusive: 1.12 µM [activator, partial curve, poor fit]	–
CN(C)c1ccc(/C=C/C=C2/C(=O)NC(=O)N(c3ccccc3)C2=O)cc1	inconclusive: 35.5 µM [inhibitor, single point]	–
COC(=O)CCC(=O)Nc1cc(S(=O)(=O)Nc2ccc(Cl)cc2)ccc1N1CCOCC1	–	inconclusive: 21.9% [activator]
O=C(NP(=O)(N1CCOCC1)N1CCOCC1)C1=C(N2CCOCC2)/C(=C\c2ccccc2)CC1	inactive	–
Cc1cc(N2CCN(C)CC2)nc2ccc(NC(=S)N3CCCCC3)cc12	inconclusive: 35.5 µM [inhibitor, single point]	–
COc1ccc(CN2CCN(c3ccccn3)CC2)cc1OCc1ccccc1	inconclusive: 4.11 µM [inhibitor, full curve, poor fit]	–
COc1ccc(C2C(C(=O)Nc3ccc(C)cc3C)=C(C)Nc3nc(SCc4cccc(C)c4)nn32)c(OC)c1 (stereo unspecified)	inactive	–
OC(CSc1ccccc1)CN1CCN(c2ccccc2)CC1 (stereo unspecified)	inconclusive: 4.47 µM [activator, single point]	–
CC1CN(S(=O)(=O)c2cccc3cnccc23)CCN1 (stereo unspecified)	inconclusive: 158 nM [inhibitor, full curve, poor fit] and inconclusive: 2.91 µM [inhibitor, partial curve, poor fit]	–
CCN1CCN(c2cc(C)c3cc(NC(=S)NCCCN4CCc5ccccc5C4)ccc3n2)CC1	active: 12.6 µM	–
CC(C)(C)c1ccc(C(=O)/C=C2\NC(=O)CS2)cc1	inactive	–
COc1ccc(-n2nnnc2SCC(=O)Nc2c(C)n[nH]c2C)cc1	inactive	–
COC(=O)[C@@H](NC(=O)N1CCN(C(=O)C2COc3ccccc3O2)CC1)C(C)C (stereo partly specified)	inconclusive: 5.01 µM [inhibitor, single point]	–
Cc1ccc(C)c(N(C)C(=O)Cc2c(C(=O)O)[nH]c3ccc(Cl)cc23)c1	inactive	–
CCc1ccc(OCC(=O)Nc2ccc3c(c2)c2ccccc2n3CC)c(Br)c1	inconclusive: 35.5 µM [activator, single point]	–
O=C(c1cc(COc2c(F)cccc2F)on1)N1CCC(c2ccncc2)CC1	inconclusive: 1.12 µM [inhibitor, full curve, poor fit]	–
